Measurements taken from PubChem BioAssay AID588590 (National Center for Advancing Translational Sciences (NCATS), 2011).
The campaign covered roughly 390,000 compounds. About 4,000 (1%) were called active. The shares of active, inactive and inconclusive entries below differ from those in the screen. Calls come from the whole dose curve; as a rule, active = well fitted inhibition curve with a large enough effect; inconclusive = small, poorly fitted or top-dose-only effect, or another doubt; inactive = no such curve, though single readings can be large or run the other way. Potencies beside an inconclusive call are fits to weak or partial responses and may not hold up.

Protein sequences, listed by entry. Tags and fused reporters are not part of them. Lines headed by an entry give the natural chain unless they say otherwise; changes in a name come on top.
UniProt Q9UNA4: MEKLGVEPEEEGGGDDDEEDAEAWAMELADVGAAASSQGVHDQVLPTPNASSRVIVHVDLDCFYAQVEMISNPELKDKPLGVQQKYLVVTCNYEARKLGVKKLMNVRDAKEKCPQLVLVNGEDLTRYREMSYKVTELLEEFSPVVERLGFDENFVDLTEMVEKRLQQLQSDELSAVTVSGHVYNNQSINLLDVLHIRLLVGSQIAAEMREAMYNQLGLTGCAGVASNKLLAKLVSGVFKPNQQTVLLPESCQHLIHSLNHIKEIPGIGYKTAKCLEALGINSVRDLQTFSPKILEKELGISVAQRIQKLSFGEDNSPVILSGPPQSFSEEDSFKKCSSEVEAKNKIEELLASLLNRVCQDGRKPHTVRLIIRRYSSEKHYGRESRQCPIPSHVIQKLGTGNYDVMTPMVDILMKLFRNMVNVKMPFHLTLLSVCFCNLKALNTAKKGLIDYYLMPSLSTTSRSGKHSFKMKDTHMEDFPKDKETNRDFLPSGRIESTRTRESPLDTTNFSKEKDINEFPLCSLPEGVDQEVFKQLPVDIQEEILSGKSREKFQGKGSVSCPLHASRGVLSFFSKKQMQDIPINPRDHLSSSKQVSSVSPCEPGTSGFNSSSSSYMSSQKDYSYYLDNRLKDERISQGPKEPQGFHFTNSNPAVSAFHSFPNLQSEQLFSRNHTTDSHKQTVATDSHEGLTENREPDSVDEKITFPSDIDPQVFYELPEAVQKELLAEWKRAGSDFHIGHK

biological target: DNA polymerase iota (Homo sapiens) (UniProt Q9UNA4); assay: qHTS for Inhibitors of Polymerase Iota; conditions: Pol iota fluorescent replication assay, 10 min; series mostly up to 115 µM
Method in brief: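 Pol iota at 10 nM preincubated 15 min with compounds at room temperature; reaction started with fluorescent substrate, 50 nM final. Fluorescence read kinetically at 0 and 10 min; buffer-only wells as negative control.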
Potency is the fitted concentration of half-maximal effect.

Potency, inactive:
COc1ccc(C)cc1NC(=O)CCS(=O)(=O)c1cc2c3c(c1)CCN3C(=O)CC2
COC(=O)c1ccc(CN2C(=O)c3ccccc3C2=O)cc1
COc1ccccc1N1CCN(C(=O)c2nc(SC)ncc2Cl)CC1
Cc1ccc(C(=O)NNC(=O)c2ccncc2)cc1S(=O)(=O)N1CCOCC1
CCOCCc1nn2c(=O)cc(COC(=O)CNC(=O)c3cccc(C)c3)nc2s1
CCOC(=O)c1c(C)[nH]c(C)c1S(=O)(=O)N(C)CC(=O)N1CCN(c2ccccc2)CC1
O=C(C[n+]1cccc(I)c1)c1ccc(F)cc1
CCn1cc(C(=O)NC(=S)Nc2ccccc2Br)cn1
COc1ccc(N2CCN(CCNS(=O)(=O)c3cccc4nsnc34)CC2)cc1
CNC(=O)[C@]1(C(F)(F)F)C[C@H](CCC2CCCCC2)CCCO1
Cc1cc(Cl)ccc1NC(=O)CSc1n[nH]c(N)n1
CCc1ccc(NCc2cc3cc4c(cc3n(CC(=O)Nc3cccc(OC)c3)c2=O)OCO4)cc1
CN(C)c1ccc(-c2n(C)c3ccccc3[n+]2C)cc1
CC(C)(C)C(=O)Cn1c(=O)n(-c2ccc(Cl)cc2)c(=O)c2c3c(sc21)CCCC3
O=C(Nc1ccc2nc(SCC(=O)N3CCOCC3)sc2c1)c1cccc(Cl)c1
O=C(c1cc(COc2cccc(C(F)(F)F)c2)on1)N1CCC(Oc2cccnc2)CC1
O=C(O)c1ccc(-c2ccc(Cl)cc2Cl)o1

Reprinted from above, two compounds:
Potency, inactive:
CNC(=O)[C@]1(C(F)(F)F)C[C@H](CCC2CCCCC2)CCCO1
Cc1cc(Cl)ccc1NC(=O)CSc1n[nH]c(N)n1

Next part.

Potency, inconclusive:
CCNc1ccc(Br)cc(C(=O)/C=C/c2ccccc2Cl)c1=O 10 µM [inhibitor, full curve, poor fit]
Cc1cc2nc(-c3ccc(SCC(=O)N4CCN(C(=O)c5ccco5)CC4)nc3)[nH]c2cc1C 39.8 µM [inhibitor, single point]
CCCCN(C)CCNC(=O)c1c2c(nc3ccccc13)C(=O)N(C1CCCCC1)C2 35.5 µM [inhibitor, single point]
COc1ccc(NC(=O)/C(Cl)=C(/Cl)S(=O)(=O)Cc2ccccc2)cn1 2.24 µM [inhibitor, full curve, poor fit]
CC1(C)CC(=O)C2=C(C1)Nc1ccccc1NC2c1ccc([N+](=O)[O-])cc1 (stereo unspecified) 39.8 µM [inhibitor, single point]
CN(CCCS(=O)(=O)[O-])c1ccc(/C=C/c2ccc3ccccc3[n+]2C)cc1 25.1 µM [inhibitor, single point]
O=C(Nc1ccnn1C1CCN(CC2CC=CCC2)CC1)c1ccccc1Cl (stereo unspecified) 89.1 µM [inhibitor, single point]
CC(C)c1nnc(SCC(=O)NCc2ccco2)n1C 12.6 µM [inhibitor, partial curve, poor fit]
COc1ccc2c(c1)C(SCC(=O)NCc1ccccc1)CC(C)(C)O2 (stereo unspecified) 39.8 µM [inhibitor, partial curve, poor fit]
CCOC(=O)c1c(C)[nH]c(C2=NNC(=NC3CC3)SC2)c1C 14.1 µM [inhibitor, partial curve, poor fit]
CC(C)CCNC(=O)c1onc(CSc2ccccn2)c1C(=O)NCCC(C)C 15.8 µM [inhibitor, partial curve, poor fit]
COc1ccc(OC)c(NC(=O)Nc2ccc(O)c3ccccc23)c1 22.4 µM [inhibitor, full curve, poor fit]
Cc1ccc2c(=O)cc(C(=O)Nc3nc4ccc(Cl)cc4s3)oc2c1C 89.1 µM [inhibitor, single point]
Cc1ccc(-c2cc(C(=O)NCc3ccco3)c3ccccc3n2)o1 10 µM [inhibitor, full curve, poor fit]
CCN(CC)CCCNC(=O)c1cn(C)c2ccc(S(=O)(=O)N(C)C3CCCCC3)cc2c1=O 39.8 µM [inhibitor, single point]
CCN(CC)c1ccc(N/C(N)=N/c2nc(C(F)(F)F)cc(=O)[nH]2)cc1 89.1 µM [inhibitor, single point]
CC(C)c1ccc(NC(=O)Cn2cc(S(=O)(=O)N3CCN(c4ccccc4F)CC3)c3ccccc3c2=O)cc1 100 µM [inhibitor, single point]
COc1ccccc1NC(=O)c1c(NCc2ccc(OC)c(OC)c2OC)sc2c1CCC2 44.7 µM [inhibitor, partial curve, poor fit]
CC(=O)c1ccc(S(=O)(=O)NCCC(=O)OCC(=O)NCCc2ccccc2)cc1 89.1 µM [inhibitor, partial curve]
CCCCc1cc(=O)oc2c(CN(C)C)c(O)ccc12 35.5 µM [inhibitor, partial curve, poor fit]
COc1ccc(/C=C2/CCCC(C(=O)C(F)(F)F)=C2O)cc1OC 17.8 µM [inhibitor, partial curve, poor fit]
COc1ccc(/C=C/C(=O)Nc2ccc3nc4c(c(Nc5ccccc5OC)c3c2)CCCC4)cc1 56.2 µM [inhibitor, partial curve, poor fit]
O=C(c1ccc2c(c1)N(Cc1cccc(F)c1)C(=O)c1ccccc1S2)N1CCOCC1 89.1 µM [inhibitor, single point]
O=C(O)c1cccc(S(=O)(=O)Nc2ccc(O)c(Sc3nc4ccccc4s3)c2)c1 31.6 µM [inhibitor, partial curve, poor fit]
N#C/C(=C/c1ccc(-c2ccc(S(N)(=O)=O)cc2)o1)c1nc2ccccc2s1 112 µM [inhibitor, single point]
Cc1ccc2nc(SCC(=O)N/N=C/c3ccc(C(=O)O)cc3)cc(C)c2c1 50.1 µM [inhibitor, partial curve, poor fit]
C1=C(c2ccc(-c3ccccc3)cc2)Nc2ncnn2C1c1ccco1 (stereo unspecified) 44.7 µM [inhibitor, partial curve, poor fit]
COc1cccc(NC(=O)CSc2nnc3scc(-c4ccc(Cl)cc4)n23)c1 50.1 µM [inhibitor, single point]
CC1=C(C)CS(=O)N(c2ccc(S(N)(=O)=O)cc2)C1 (stereo unspecified) 1.78 µM [inhibitor, full curve, poor fit]
CCN(CC)c1nc(-c2cccc(OC)c2O)nc2ccccc12 35.5 µM [inhibitor, single point]
COc1cccc2cc(C(=O)N3CCN(C45CC6CC(CC(C6)C4)C5)CC3)c(=O)oc12 31.6 µM [inhibitor, single point]
O=C(N/N=C/c1ccoc1)c1ccc(Br)cc1 89.1 µM [inhibitor, partial curve, poor fit]
CCOc1ccccc1CN1CCC(N2CCOCC2)CC1 7.94 µM [inhibitor, partial curve, poor fit]
Cc1ccc2nc(-c3ccc(Cl)c(NC(=O)COc4cccc(C)c4C)c3)oc2c1 12.6 µM [inhibitor, partial curve]
Oc1ccccc1/C=N/Nc1ccnc(SCc2ccccc2)n1 25.1 µM [inhibitor, partial curve]
CCCN1CNc2c(c(=O)[nH]c(=S)n2CCc2ccccc2Cl)C1 89.1 µM [inhibitor, single point]
CC(=O)N1CCc2cc(CNC(=O)Cc3ccc(F)cc3)ccc21 89.1 µM [inhibitor, single point]
CCC1(C)Cc2c(sc3nc(SC)[nH]c(=S)c23)CO1 (stereo unspecified) 11.2 µM [inhibitor, partial curve]
CCCc1nc2c(nnn2Cc2ccccc2)c(=O)[nH]1 63.1 µM [inhibitor, full curve, poor fit]
NC(=O)c1ccsc1NC(=O)COC(=O)C1CCCN1C(=O)c1cccs1 (stereo unspecified) 10 µM [inhibitor, single point]
CN1CCN(S(=O)(=O)c2ccc(N3CCN(c4ccc(O)cc4)CC3)c([N+](=O)[O-])c2)CC1 20 µM [inhibitor, partial curve, poor fit]
O=C1CSC(=S)N1/N=C/c1cccc(C(F)(F)F)c1 50.1 µM [inhibitor, partial curve, poor fit]

Pulled one by one from above:
Potency, inconclusive:
CC(C)CCNC(=O)c1onc(CSc2ccccn2)c1C(=O)NCCC(C)C 15.8 µM [inhibitor, partial curve, poor fit]
N#C/C(=C/c1ccc(-c2ccc(S(N)(=O)=O)cc2)o1)c1nc2ccccc2s1 112 µM [inhibitor, single point]
COc1ccc(NC(=O)/C(Cl)=C(/Cl)S(=O)(=O)Cc2ccccc2)cn1 2.24 µM [inhibitor, full curve, poor fit]

Next part.

Potency, active:
CC1S/C(=C(\C#N)C(=O)NCc2ccco2)N(Cc2ccco2)C1=O (stereo unspecified) 22.4 µM
COc1ccc(-c2ccc(SCC(=O)Nc3cccc(C(C)=O)c3)nn2)cc1OC 28.2 µM
N#Cc1c(-c2ccco2)c2c([nH]c1=S)CCCC2 12.6 µM
CCN(Cc1cccc(S(=O)(=O)O)c1)c1ccc(C(=C2C=CC(=[N+](CC)Cc3cccc(S(=O)(=O)O)c3)C=C2)c2ccc(O)cc2S(=O)(=O)O)cc1 2.24 µM
O=C(COC(=O)c1ccc(Br)o1)NCc1ccco1 50.1 µM
Cc1c(C(=O)O)cccc1-n1c(C)cc(/C=N/Nc2ccc([N+](=O)[O-])cn2)c1C 50.1 µM
COc1ccc([C@H]2CC(=O)C=C(c3ccc(SC)cc3)C2)cc1 89.1 µM
